# Reference: PubChem BioAssay AID504444 (National Center for Advancing Translational Sciences (NCATS), 2011)
# In all, about 360,000 compounds went through this assay and about 7,500 (2.1%) were called active. Inconclusive means that the source gave no clear call. Such entries were picked first, then a sample of the others. Calls come from the whole dose curve; as a rule, active = well fitted inhibition curve with a large enough effect; inconclusive = small, poorly fitted or top-dose-only effect, or effect the other way; inactive = flat fitted curve, though single readings scatter. Potencies beside an inconclusive call are fits to weak or partial responses and may not hold up.
# Test: Nrf2 qHTS screen for inhibitors; note: nearly all actives have a fitted effect of over 60% in size
# Settings: A549 ARE-Fluc reporter, luciferase luminescence, 18-24 h; activity change, negative = inhibition: at 46 µM (top of the series)
# How it was run: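 In this cell-based qHTS, ARE-driven firefly luciferase in A549 cells reports Nrf2 activity; the luminescent signal after BugLite lysis is the measured value, with a prior CellTiter-Fluor read for cell health.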
# % is set by controls: 0 for no effect and ±100 for the full control effect; potency is the fitted concentration of half-maximal effect.
Structure (SMILES),Potency,"activity change, negative = inhibition"
Cc1cccc(/C(N)=N/OC(=O)CCC2CCCCC2)c1,"inconclusive: 11.6 µM [activator, partial curve]",
O=C(Cn1cnc(S(=O)(=O)N2CCCCC2)c1)N1CCN(c2ccc([N+](=O)[O-])cc2)CC1,,inactive: -14.5%
Cn1c(=O)c2[nH]c(COc3ccc(C(C)(C)C)cc3)nc2n(C)c1=O,active: 11.6 µM,
S=c1[nH]nc(Cc2ccccc2)n1Cc1ccco1,"inconclusive: 29.1 µM [falling, partial curve, poor fit]",
CCCN1CCN(CCCNC(=O)c2cnn(-c3ccc(C)cc3)c2-n2cccc2)CC1,"inconclusive: 29.1 µM [activator, single point]",
Oc1ccccc1N1CCN(C(=S)NCCc2ccccc2)CC1,,inactive: 3.97%
Cc1cc(NC(=O)CC(CN(C)S(=O)(=O)c2ccccc2)c2ccccc2)no1 (configuration not stated),"inconclusive: 10.3 µM [falling, partial curve, poor fit]",
CCCCn1c2c(c3ccccc31)CCc1nonc1-2,"inconclusive: 29.1 µM [activator, single point]",
CCc1cccc(NC(=O)c2c(C)oc3ncnc(N4CCCCC4)c23)c1,"inconclusive: 18.4 µM [falling, single point]",
COc1cccc(N2CCN(CC(=O)Nc3ccnn3C3CCCC3)CC2)c1,"inconclusive: 16.4 µM [falling, single point]",
COc1ccccc1C1=NOC(COc2ccc3c(C)cc(=O)oc3c2)C1 (configuration not stated),"inconclusive: 2.31 µM [falling, full curve, poor fit]",
COc1ccccc1Oc1ccccc1C(=O)O,"inconclusive: 1.03 µM [falling, partial curve, poor fit]",
COC(=O)[C@@]12CCCCN1[C@H](c1ccc(-c3cccc(Cl)c3)c(OC)c1)[C@H]1C(=O)N(C)C(=O)[C@H]12,"inconclusive: 25.9 µM [falling, single point]",
c1ccc2c(c1)oc1c(NCCCn3ccnc3)ncnc12,"inconclusive: 7.31 µM [activator, partial curve, poor fit]",
c1ccc(C2Nc3cccc4cccc(c34)N2)cc1,,inactive: 12%
Cn1nnnc1Sc1ncnc2scc(-c3ccc(C(=O)OC(C)(C)C)cc3)c12,,inactive: 10.4%
CC(C)COC(=O)Nc1nnc(SCc2ccccc2F)s1,"inconclusive: 13 µM [activator, partial curve, poor fit]",
CC(=O)c1c(C)nc(-c2ccccc2)nc1N,"inconclusive: 9.2 µM [activator, partial curve]",
O=C(Nc1ccc2nc(C3CC3)n(Cc3ccccc3)c(=O)c2c1)C1CC1,"inconclusive: 0.731 µM [activator, full curve, poor fit]",
Cc1nn(-c2ccccc2)c(C)c1C(=O)OCC(=O)NCc1ccco1,,inactive: 5.57%
COCCn1cnc2c(c1=O)c1nc3ccccc3nc1n2/N=C/c1cccc(OC)c1,"inconclusive: 23.1 µM [falling, single point]",

Structure (SMILES),Potency,"activity change, negative = inhibition"
CC(=O)N(C1=C(Cl)C(=O)c2ccccc2C1=O)C1CCCCC1,"inconclusive: 29.1 µM [falling, single point]",
CC(C)c1ccc(NC(=O)[C@@H](NC(=O)N2CC(=O)Nc3ccccc32)C(C)C)cc1,"inconclusive: 29.1 µM [falling, single point]",
Cc1ccc2c(c1)c1c(c(=O)n(-c3cccc(Cl)c3)c(=O)n1C)n2C,"inconclusive: 25.9 µM [activator, single point]",
CC(Sc1nc2ncc(Cl)cc2[nH]1)C(=O)NC1(C#N)CCCCC1 (configuration not stated),"inconclusive: 20.6 µM [falling, partial curve, poor fit]",
CCSc1ncc(Cl)c(C(=O)Nc2sc(C(C)=O)c(C)c2C(=O)OC)n1,,inactive: 2.67%
CC(=O)Nc1ccc(-c2csc(NC(=O)Cc3cccc(F)c3)n2)cc1,active: 20.6 µM,
Cc1cc(/C=C2/SC(=O)N(CC(=O)N3CCCC3)C2=O)c(C)n1C,"inconclusive: 16.4 µM [activator, partial curve, poor fit]",
CCOC(=O)C1CCN(C(=O)c2ccc(OC3CCN(C(=O)CCOC)CC3)cc2)CC1,"inconclusive: 23.1 µM [activator, single point]",
CCN(CC)C(=O)c1cn(CCC#N)nc1-c1ccc(F)cc1,"inconclusive: 1.84 µM [activator, full curve, poor fit]",
O=C(Cn1cnc2c(nnn2Cc2ccccc2F)c1=O)OCc1ccccc1,"inconclusive: 0.517 µM [activator, full curve, poor fit]",
O=C(CSc1n[nH]c(-c2cccnc2)n1)Nc1ccc([N+](=O)[O-])cc1,"inconclusive: 18.4 µM [falling, single point]",
Cc1cc(C)c(NC(=O)CCCCCNC2CCCCC2)c(C)c1,"inconclusive: 18.4 µM [activator, single point]",
CSc1ncc(C(=O)Nc2ccc(Br)cn2)c(C)n1,"inconclusive: 9.2 µM [activator, partial curve, poor fit]",
CC[n+]1c(/C=C(\C)Nc2ccccc2)sc2ccccc21,,inactive: -15.3%
Cc1ccc2nc(NCCCO)nc(-c3ccccc3)c2c1,"inconclusive: 18.4 µM [falling, single point]",
CCNc1nc(Oc2ccc(OCC(=O)OC)nn2)nc(N2CCOCC2)n1,,inactive: 6.2%
CCCn1c(=O)c(C(=O)Nc2cccc(C)n2)c(O)c2ccccc21,"inconclusive: 2.06 µM [activator, full curve]",
N=C1/C(=C/c2ccc(OC(=O)c3ccco3)cc2)C(=O)N=C2SC=CN12,,inactive: -1.74%
COC(=O)C1=C(C(=O)OC)[C@@H]2N(Cc3ccccc3)c3ccccc3[C@@]23C[C@@H](C(=O)OC)N(C(C)=O)C3=N1,,inactive: 1.5%
CN(C)S(=O)(=O)c1cccc(COc2ccccc2C(=O)Nc2ccccc2)c1,"inconclusive: 25.9 µM [falling, single point]",
CCCCN1CC(COCc2ccccc2)Oc2cccc(OCCN3C(=O)[C@@H]4[C@H](C3=O)C3C=C[C@H]4C3)c2S1(=O)=O (some centres not stated),"inconclusive: 18.4 µM [falling, single point]",

# Reformatted tab-delimited: entries from further up
Structure (SMILES)	Potency	activity change, negative = inhibition
CC(C)c1ccc(NC(=O)[C@@H](NC(=O)N2CC(=O)Nc3ccccc32)C(C)C)cc1	inconclusive: 29.1 µM [falling, single point]	
Cc1ccc2c(c1)c1c(c(=O)n(-c3cccc(Cl)c3)c(=O)n1C)n2C	inconclusive: 25.9 µM [activator, single point]	
